PubChem BioAssay AID602474 (National Center for Advancing Translational Sciences (NCATS), 2012)
The inconclusive results got no clear call from the source; some entries with a clear call stand among them for comparison. Potencies beside an inconclusive call are fits to weak or partial responses and may not hold up. The source made the active and inactive calls. Calls come from the whole dose curve; as a rule, active = well fitted inhibition curve with a large enough effect; inconclusive = small, poorly fitted or top-dose-only effect; inactive = no such curve, though single readings can be large or run the other way.

By UniProt entry, the sequences of proteins in these tests, tags left out.
UniProt P08659, whole entry, looked up: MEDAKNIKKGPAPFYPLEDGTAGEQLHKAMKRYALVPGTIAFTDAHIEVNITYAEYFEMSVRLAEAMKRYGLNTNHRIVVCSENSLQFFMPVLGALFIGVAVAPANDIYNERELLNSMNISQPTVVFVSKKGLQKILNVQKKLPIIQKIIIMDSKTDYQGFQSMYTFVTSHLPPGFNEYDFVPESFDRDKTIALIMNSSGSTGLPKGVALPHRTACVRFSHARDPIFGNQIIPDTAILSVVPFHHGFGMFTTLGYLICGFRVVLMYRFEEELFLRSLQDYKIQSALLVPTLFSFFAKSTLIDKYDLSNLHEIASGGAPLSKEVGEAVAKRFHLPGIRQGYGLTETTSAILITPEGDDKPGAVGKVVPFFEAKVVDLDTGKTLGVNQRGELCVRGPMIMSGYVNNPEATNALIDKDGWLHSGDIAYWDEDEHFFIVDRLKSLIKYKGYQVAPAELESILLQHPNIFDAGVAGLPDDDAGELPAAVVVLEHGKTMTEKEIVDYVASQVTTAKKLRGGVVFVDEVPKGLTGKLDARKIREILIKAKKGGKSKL

Target: Luciferin 4-monooxygenase (Photinus pyralis) (UniProt P08659)
Assay: FLuc inhibitory activity for the follow-up compounds in a biochemical assay with a commercial detection reagent - BriteliteTM Plus (PerkinElmer)
Settings: purified FLuc, Britelite Plus luminescence; series mostly up to 38.3 µM; activity change, negative = inhibition: at the top concentration
From the text: NCGC Assay Overview: Firefly (Photinus pyralis) luciferase is one of the most commonly used transcriptional reporters. It is considered one of the more dynamically responsive reporters - that is, responsive to changes in reporter transcription - as it requires no post-translational modifications and is enzymatically active directly after protein synthesis (Wood, 1998). With no endogenous expression in mammalian cells and without the requirement of external excitation, it offers very little background signal, thus generally providing excellent signal to background for most assays. Previous profiling work to determine the prevalence of compounds that affect FLuc enzymatic activity (PubChem AID 411) identified that ~3% of the MLSMR library (then at ~72K) inhibited FLuc (Auld et al., 2008). […] Of the compounds identified in this profile that inhibited FLuc, 151 compounds were selected for further analysis, in an effort to better understand their mode of inhibiting FLuc. The assay described here was to determine the activity of the compounds in a FLuc assay that used a commercial formulation of detection reagent (BriteliteTM Plus; PerkinElmer).
NCGC Assay Protocol Summary: Reagents: Britelite Plus detection reagent; 50mM Tris acetate, pH 7.5; 10nM P. pyralis luciferase (Sigma #L9506) Control compounds used were two known firefly luciferase inhibitors (3-(5-(3-chlorophenyl)-1,2,4-oxadiazol-3-yl)benzoic acid and 5-(2-fluorophenyl)-3-phenyl-1,2,4-oxadiazole), and DMSO. Assay Summary: Three microliters of buffer containing firefly luciferase (final concentrations: 50mM Tris acetate, 10nM P. pyralis luciferase) are dispensed into each well of a Greiner white, solid-bottom 1536-well format plate using a flying reagent dispenser (FRD). These assay plates were then treated with 23nL of compound or DMSO using a Kalypsys pin tool, which allows for delivery of a 12-point intraplate titration of each compound to the assay plate (quantitative HTS), with final compound concentrations ranging from approximately ~38uM to 0.2nM. Three microliters of 2X Britelite Plus detection reagent was then delivered by FRD to each well. Luciferase activity was then measured using a ViewLux CCD imager (PerkinElmer), with an average exposure time of 2-30 seconds (2X binning, medium/high gain).

Row | Structure (SMILES) | Potency | activity change, negative = inhibition
1 | O=C(Nc1ccccc1C(=O)O)c1ccc(NC(=O)C2CCCO2)cc1 (stereo not given) | inconclusive: 14.2 µM [inhibitor, partial curve] | 
2 | COc1cccc(OC)c1C(=O)Nc1cccc(C(=O)Nc2cccc(C(=O)O)c2)c1 | inconclusive: 10 µM [inhibitor, partial curve] | 
3 | Cc1ccc(C(=O)Nc2ccc(C(=O)O)cc2)cc1S(=O)(=O)Nc1ccccc1 | inconclusive: 71.1 µM [inhibitor, partial curve, poor fit] | 
4 | CCOc1ccc2nc(NC(=O)c3cccnc3)sc2c1 | inconclusive: 8.95 µM [inhibitor, partial curve] | 
5 | CCOc1ccc2nc(NC(=O)c3ccoc3C)sc2c1 | active: 2 µM | 
6 | Cc1c(NC(=O)c2cc(-n3cnnc3)ccc2Cl)cccc1-c1nc2ccccc2s1 | inconclusive: 3.56 µM [inhibitor, full curve] | 
7 | Cc1ccc2sc(-c3ccc(N)cc3)nc2c1 | active: 0.798 µM | 
8 | O=C(Cc1ccccc1)Nc1ccc(C(=O)Nc2ccccc2C(=O)O)cc1 | inconclusive: 20 µM [inhibitor, partial curve] | 
9 | Cc1c(NS(C)(=O)=O)cccc1-c1nc2ccccc2s1 |  | inactive: -34.5%
10 | O=C(Nc1ccccc1C(=O)O)c1cccc(S(=O)(=O)N2CCCC2)c1 | inconclusive: 20 µM [inhibitor, partial curve, poor fit] | 
11 | COc1ccc(C(=O)Nc2ccccc2-c2nc3ccccc3s2)c(OC)c1 | inconclusive: 31.8 µM [inhibitor, partial curve, poor fit] | 
12 | O=C(Nc1ccccc1C(=O)Nc1ccccc1C(=O)O)c1ccccc1 |  | inactive: 2.67%
13 | CCCOc1cccc(C(=O)Nc2ccc(-c3nc4ccccc4s3)c(Cl)c2)c1 | inconclusive: 22.5 µM [inhibitor, single point] | 
14 | COc1cc(OC)cc(-c2nc3ccccc3s2)c1 | inconclusive: 15.9 µM [inhibitor, partial curve] | 
15 | Cc1cccc(C(=O)Nc2ccccc2C(=O)Nc2ccc(C(=O)O)cc2)c1 | inconclusive: 0.126 µM [inhibitor, full curve] | 
16 | O=C(O)c1ccc(NC(=O)c2cccc(C(=O)Nc3ccc(C(=O)O)cc3)c2)cc1 |  | inactive: -5.19%
17 | CC(C)(C)C(=O)Nc1ccc(-c2nc3ccccc3s2)cc1 | active: 0.0179 µM | 
18 | Cn1c(N/N=C/c2cc3ccccc3nc2Cl)nc2ccccc21 | active: 12.6 µM | 
19 | Cc1c(NC(=O)C(C)(C)C)cccc1-c1nc2ccccc2s1 | inconclusive: 25.2 µM [inhibitor, partial curve, poor fit] | 
20 | Cc1ccc(C(=O)Nc2cccc(C(=O)O)c2)cc1 | active: 2 µM | 

Row | Structure (SMILES) | Potency | activity change, negative = inhibition
21 | O=C(Nc1ccccc1C(=O)O)c1cccc(NC(=O)c2ccco2)c1 | inconclusive: 14.2 µM [inhibitor, partial curve, poor fit] | 
22 | CC(=O)Oc1ccc(C(=O)Nc2ccccc2C(=O)Nc2ccc(C(=O)O)cc2)cc1 | inconclusive: 17.9 µM [inhibitor, partial curve] | 
23 | O=S(=O)(c1ccc(-c2nc3ccccc3s2)cc1)N1CCCC1 | inconclusive: 12.6 µM [inhibitor, partial curve] | 
24 | O=C(O)c1cccc(NC(=O)c2cccc(S(=O)(=O)N3CCCCC3)c2)c1 | inconclusive: 12.6 µM [inhibitor, partial curve] | 
25 | O=C(O)c1cccc(NC(=O)c2ccc(COc3ccc(Cl)cc3)cc2)c1 |  | inactive: 8.38%
26 | O=C(Nc1ccccc1C(=O)O)c1ccc(Cl)c(S(=O)(=O)N2CCOCC2)c1 | inconclusive: 12.6 µM [inhibitor, partial curve] | 
27 | CN(C)S(=O)(=O)c1ccc(C(=O)Nc2cccc(C(=O)O)c2)cc1 | inconclusive: 15.9 µM [inhibitor, partial curve, poor fit] | 
28 | COc1ccc(-c2cccc(C(=O)Nc3cccc(C(=O)O)c3)c2)cc1 | inconclusive: 17.9 µM [inhibitor, partial curve] | 
29 | O=C(O)c1ccccc1NC(=O)c1ccccc1Nc1ccccc1 |  | inactive: -13.6%
30 | O=C(O)c1ccc(NC(=O)c2cccc(NC(=O)c3cccs3)c2)cc1 | inconclusive: 28.3 µM [inhibitor, partial curve, poor fit] | 
31 | COc1ccc2nc(NC(=O)CCc3ccc(OC)c(OC)c3)sc2c1 | inconclusive: 4.49 µM [inhibitor, full curve] | 
32 | COc1ccc2nc(NC(=O)C3CCN(S(=O)(=O)c4cccs4)CC3)sc2c1 |  | inactive: -1.3%
33 | COc1cccc(-c2nc3ccccc3s2)c1 | active: 5.65 µM | 
34 | O=C(Nc1ccccc1C(=O)O)c1ccc(NC(=O)C2CCCCC2)cc1 | inconclusive: 14.2 µM [inhibitor, partial curve, poor fit] | 
35 | COc1cc(C(=O)Nc2cc(C)c(O)c(-c3nc4ccccc4s3)c2)cc(OC)c1OC | inconclusive: 31.8 µM [inhibitor, partial curve, poor fit] | 
36 | O=C(O)c1ccc(NC(=O)c2ccccc2NC(=O)c2ccccc2Br)cc1 |  | inactive: -11.6%
37 | COc1ccc2nc(NC(=O)c3cnccn3)sc2c1 | active: 2 µM | 
38 | COc1ccc(CC(=O)Nc2ccc(-c3nc4ccccc4s3)c(C)c2)cc1 | inconclusive: 7.98 µM [inhibitor, partial curve, poor fit] | 
39 | CC(C)CC(=O)Nc1cccc(C(=O)Nc2ccccc2C(=O)O)c1 | inconclusive: 12.6 µM [inhibitor, partial curve] | 
40 | CCOc1ccc2nc(NC(=O)c3ccccc3)sc2c1 | active: 2.52 µM | 

One compound at a time, as listed above:
`COc1cccc(-c2nc3ccccc3s2)c1` is listed as Potency: active: 5.65 µM
`COc1ccc(CC(=O)Nc2ccc(-c3nc4ccccc4s3)c(C)c2)cc1` is listed as Potency: inconclusive: 7.98 µM [inhibitor, partial curve, poor fit]
`O=C(O)c1ccc(NC(=O)c2cccc(NC(=O)c3cccs3)c2)cc1` is listed as Potency: inconclusive: 28.3 µM [inhibitor, partial curve, poor fit]
